# Laboratory results published in paper PMC8384837.
# Positions count from the first letter of the chain named. Some of the results follow.
# Legend:
# Conditions in all cases: yeast three-hybrid, YBZ-1, SC-Leu-His + 0.5 mM 3-AT, 4 days
# [1] = molecular target: T1, PUM1 PUF domain R3-AAE C935A + R936A + Q939E (Homo sapiens) (UniProt Q14671)
# T1 sequence: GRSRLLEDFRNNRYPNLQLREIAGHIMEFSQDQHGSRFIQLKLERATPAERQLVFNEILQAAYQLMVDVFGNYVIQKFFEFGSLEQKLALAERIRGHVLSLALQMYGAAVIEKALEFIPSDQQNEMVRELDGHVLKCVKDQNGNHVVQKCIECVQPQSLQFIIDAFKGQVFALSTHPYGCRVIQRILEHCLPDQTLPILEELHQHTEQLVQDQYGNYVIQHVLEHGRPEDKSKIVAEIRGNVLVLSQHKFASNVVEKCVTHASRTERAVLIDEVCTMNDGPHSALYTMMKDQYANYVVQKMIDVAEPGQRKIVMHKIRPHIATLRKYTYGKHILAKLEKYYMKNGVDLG
# [2] = molecular target: T2, PUM1 PUF domain R3-FRV C935F + Q939V (Homo sapiens) (UniProt Q14671)
# T2 sequence: T1 sequence with A108F, A109R, E112V
# [3] = molecular target: T3, PUM1 PUF domain R3-GVE C935G + R936V + Q939E (Homo sapiens) (UniProt Q14671)
# T3 sequence: T1 sequence with A108G, A109V
# [4] = molecular target: T4, PUM1 PUF domain R3-HRS C935H + Q939S (Homo sapiens) (UniProt Q14671)
# T4 sequence: T1 sequence with A108H, A109R, E112S
# [5] = molecular target: T5, PUM1 PUF domain R3-LFA C935L + R936F + Q939A (Homo sapiens) (UniProt Q14671)
# T5 sequence: T1 sequence with A108L, A109F, E112A
# [6] = molecular target: T6, PUM1 PUF domain R3-LHY C935L + R936H + Q939Y (Homo sapiens) (UniProt Q14671)
# T6 sequence: T1 sequence with A108L, A109H, E112Y
# [7] = molecular target: T7, PUM1 PUF domain R3-LNS C935L + R936N + Q939S (Homo sapiens) (UniProt Q14671)
# T7 sequence: T1 sequence with A108L, A109N, E112S
# [8] = molecular target: T8, PUM1 PUF domain R3-LSC C935L + R936S + Q939C (Homo sapiens) (UniProt Q14671)
# T8 sequence: T1 sequence with A108L, A109S, E112C
# [9] = molecular target: T9, PUM1 PUF domain R3-QRA C935Q + Q939A (Homo sapiens) (UniProt Q14671)
# T9 sequence: T1 sequence with A108Q, A109R, E112A
# [10] = molecular target: T10, PUM1 PUF domain R3-QRS C935Q + Q939S (Homo sapiens) (UniProt Q14671)
# T10 sequence: T1 sequence with A108Q, A109R, E112S
# [11] = molecular target: T11, PUM1 PUF domain R3-RAL C935R + R936A + Q939L (Homo sapiens) (UniProt Q14671)
# T11 sequence: T1 sequence with A108R, E112L
# [12] = molecular target: T12, PUM1 PUF domain R3-RAP C935R + R936A + Q939P (Homo sapiens) (UniProt Q14671)
# T12 sequence: T1 sequence with A108R, E112P
# [13] = molecular target: T13, PUM1 PUF domain R3-RAT C935R + R936A + Q939T (Homo sapiens) (UniProt Q14671)
# T13 sequence: T1 sequence with A108R, E112T
# [14] = molecular target: T14, PUM1 PUF domain R3-RAW C935R + R936A + Q939W (Homo sapiens) (UniProt Q14671)
# T14 sequence: T1 sequence with A108R, E112W
# [15] = molecular target: T15, PUM1 PUF domain R3-RMR C935R + R936M + Q939R (Homo sapiens) (UniProt Q14671)
# T15 sequence: T1 sequence with A108R, A109M, E112R
# [16] = molecular target: T16, PUM1 PUF domain R3-RMW C935R + R936M + Q939W (Homo sapiens) (UniProt Q14671)
# T16 sequence: T1 sequence with A108R, A109M, E112W
# [17] = molecular target: T17, PUM1 PUF domain R3-RRE C935R + Q939E (Homo sapiens) (UniProt Q14671)
# T17 sequence: T1 sequence with A108R, A109R
# [18] = molecular target: T18, PUM1 PUF domain R3-RSP C935R + R936S + Q939P (Homo sapiens) (UniProt Q14671)
# T18 sequence: T1 sequence with A108R, A109S, E112P
# [19] = molecular target: T19, PUM1 PUF domain R3-RVR C935R + R936V + Q939R (Homo sapiens) (UniProt Q14671)
# T19 sequence: T1 sequence with A108R, A109V, E112R
# [20] = molecular target: T20, PUM1 PUF domain R3-YPR C935Y + R936P + Q939R (Homo sapiens) (UniProt Q14671)
# T20 sequence: T1 sequence with A108Y, A109P, E112R
sequence,measurement,setting,value
GGCUAGAACUAGUGGAUCCCCCGGCGCCCGGCGGCUCGAGCCCGGGUAAGUGUAAAUAGUCUGCAUGCCGCCGGGCGCCAUGCCUGCAGGUCGACUCUAGAAAACAUG,binding signal (log2 enrichment (interaction score)),[1],-2.07
same,binding signal (log2 enrichment (interaction score)),[2],-2
same,binding signal (log2 enrichment (interaction score)),[3],-2.79
same,binding signal (log2 enrichment (interaction score)),[4],-2.37
same,binding signal (log2 enrichment (interaction score)),[5],-2.71
same,binding signal (log2 enrichment (interaction score)),[6],-2.2
same,binding signal (log2 enrichment (interaction score)),[7],-3.43
same,binding signal (log2 enrichment (interaction score)),[8],-2.13
same,binding signal (log2 enrichment (interaction score)),[9],-3.09
same,binding signal (log2 enrichment (interaction score)),[10],-1.99
same,binding signal (log2 enrichment (interaction score)),[11],-2.33
same,binding signal (log2 enrichment (interaction score)),[12],-2.1
same,binding signal (log2 enrichment (interaction score)),[13],-1.84
same,binding signal (log2 enrichment (interaction score)),[14],-2.92
same,binding signal (log2 enrichment (interaction score)),[15],-2.34
same,binding signal (log2 enrichment (interaction score)),[16],-2.04
same,binding signal (log2 enrichment (interaction score)),[17],-2.06
same,binding signal (log2 enrichment (interaction score)),[18],-2.99
same,binding signal (log2 enrichment (interaction score)),[19],-1.77
same,binding signal (log2 enrichment (interaction score)),[20],-2.2

# Random excerpt: two records from the list, in no set order.
sequence,measurement,setting,value
GGCUAGAACUAGUGGAUCCCCCGGCGCCCGGCGGCUCGAGCCCGGGUAAGUGUAAAUAGUCUGCAUGCCGCCGGGCGCCAUGCCUGCAGGUCGACUCUAGAAAACAUG,binding signal (log2 enrichment (interaction score)),[9],-3.09
same,binding signal (log2 enrichment (interaction score)),[10],-1.99
